Our source for the binding values is patent US20240092848A1.

Numbering of substitutions follows the chain as printed. Results are given in words; binding and its absence hold for the method and conditions named. For part of these data: Binding calls can cover weak binding; strength is not graded here. For part of these data: Tags and fused reporters may be left off the sequences shown. For part of these data: In cells and extracts the contact can be indirect.

The target in assay [1] is HA-Reck. The experiment in a line: recap of the PLA result of Example 1.
The target of assay [2] is HA-Reck. The experiment in a line: proximity ligation assay (anti-V5/anti-HA) in GPR124-/-;RECK-/- cells.
Assay [3] deals with Reck. The experiment in a line: anti-V5 immunostaining of non-permeabilized GPR124-/-;RECK-/- cells.
For assay [4], the target named is Gpr124. The assay is described as above.
Assay [5] deals with Fz5 (Mus musculus (Mouse)). Briefly: anti-V5 immunostaining of non-permeabilized GPR124-/-;RECK-/- cells expressing Fz5.
Assay [6] addresses ReckΔCK4. Briefly: proximity ligation assay (anti-V5/anti-HA) with HA-tagged Reck deletion variants.
Assay [7] addresses ReckΔCK5. The description is as above.
Assay [8] has as its target HA-Fz5. Briefly: proximity ligation assay (anti-V5/anti-HA) in GPR124-/-;RECK-/- cells.
The target in assay [9] is HA-Gpr124. The description is as above.
Assay [10] has as its target HA-Reck. The experiment in a line: proximity ligation assay (anti-V5/anti-HA).

B1: Wnt7a1-278 (ligand, not shown: small tags and cut ends)
chain: LGASIICNKIPGLAPRQRAICQSRPDAIIVIGEGSQMGLDECQFQFRNGRWNCSALGERTVFGKELKVGSREAAFTYAIIAAGVAHAITAACTQGNLSDCGCDKEKQGQYHRDEGWKWGGCSADIRYGIGFAKVFVDAREIKQNARTLMNLHNNEAGRKILEENMKLECKCHGVSGSCTTKTCWTTLPQFRELGYVLKDKYNEAVHVEPVRASRNKRPTFLKIKKPLSYRKPMDTDLVYIEKSPNYC
In the case of B1, the binding result in assay [1] and in [2] was “binds” in each case.

B2: Wnt7a-V5 (ligand, not shown: small tags and cut ends)
chain: LGASIICNKIPGLAPRQRAICQSRPDAIIVIGEGSQMGLDECQFQFRNGRWNCSALGERTVFGKELKVGSREAAFTYAIIAAGVAHAITAACTQGNLSDCGCDKEKQGQYHRDEGWKWGGCSADIRYGIGFAKVFVDAREIKQNARTLMNLHNNEAGRKILEENMKLECKCHGVSGSCTTKTCWTTLPQFRELGYVLKDKYNEAVHVEPVRASRNKRPTFLKIKKPLSYRKPMDTDLVYIEKSPNYCEEDPVTGSVGTQGRACNKTAPQASGCDLMCCGRGYNTHQYARVWQCNCKFHWCCYVKCNTCSERTEMYTCK
modifications: palmitoleic acid at Serine 206 (precursor numbering)
Turning to B2, the binding entry in [3] is listed as “binds”; in [4] it was “no binding”; in [5], “binds”; in assay [6], “no binding”; in assay [7] it was “no binding”; in [8], “binds”. Further, the binding result in [9] was “no binding”; in assay [2], “binds”.

B3: Wnt7aS206A (ligand, not shown: small tags and cut ends)
chain: B2 chain with S175A
Consider B3, for which, in assay [10], the binding result is reported as “binds”.

B4: Wnt7a4A-V5 (ligand, not shown: small tags and cut ends)
chain: B2 chain with V210A, F220A, L221A, K231A
With B4, the binding result in [10] was “binds”.
